Laboratory results: US8802713B2, “3-alkoxy-1-phenylpyrazole derivatives and pesticides” (Kumiai Chemical Industry Co., Ltd., priority 2007, dated 2014)
Some results were stated once for a whole list of compounds, not compound by compound. At least one structure is not confirmed: it was looked up by name or label, or the drawing left a doubt.

These molecules were tested on two-spotted spider mites (assay: Miticidal test on two-spotted spider mites (seedling dip)). Details: 500 ppm active ingredient, soybean seedlings with imago mites dipped, 25° C., 13 days.
Assay type: in vivo, Tetranvchus urticae
Protocol: A wettable powder prepared in accordance with Formulation Example 2 was diluted with water to a concentration of an active ingredient of 500 ppm. Soybean seedlings which had been inoculated with imago two-spotted spider mites were dipped in the solution and dried in air. The treated soybean seedlings were placed in a thermostatic chamber at 25° C. for 13 days, and the number of live mites were assessed for calculation of the protective value by Equation 1. The test was carried out by one series system.

**Q.** With Cc1cc(F)c(-n2nc(OCC(F)(F)C(F)(F)C(F)(F)C(F)(F)F)cc2C#N)cc1[S+]([O-])CC(F)(F)F (stereo not shown) [1-340] as the molecule, how does the protective value read?
**A.** ≥ 90

**Q.** With CCNc1cc(OC(F)(F)C(F)OC(F)(F)C(F)(F)F)nn1-c1cc([S+]([O-])CC(F)(F)F)c(C)cc1F (stereo not shown) [1-1514] as the molecule, how does the protective value read?
**A.** ≥ 90

**Q.** COc1ccn(-c2cc([S+]([O-])CC(F)(F)F)c(C)cc2F)n1 (stereo not shown) [1-1358] was tested. Which protective value did it give?
**A.** ≥ 90

**Q.** For COc1cc(OCC(F)(F)C(F)(F)C(F)(F)C(F)(F)F)nn1-c1cc(SCC(F)(F)F)c(C)cc1F [1-364], which protective value is on record?
**A.** ≥ 90

**Q.** Cc1cc(F)c(-n2ccc(OC(C)C(F)(F)F)n2)cc1[S+]([O-])CC(F)(F)F (stereo not shown) [1-1520] was tested. Which protective value did it give?
**A.** ≥ 90

**Q.** How did the protective value turn out when Cc1cc(F)c(-n2cc(Br)c(OC(F)(F)C(F)F)n2)cc1SCC(F)(F)F [1-1406] was run?
**A.** ≥ 90

**Q.** Which protective value does the source give for CC(=O)N(C)c1cc(OC(F)(F)C(F)F)nn1-c1cc(SCC(F)(F)F)c(C)cc1F [1-1392] here?
**A.** ≥ 90

**Q.** Cc1cc(F)c(-n2nc(OCC(F)(F)F)cc2C)cc1SCC(F)(F)F [1-1415] was tested. Which protective value did it give?
**A.** ≥ 90

**Q.** With CC(=O)Nc1cc(OC(F)(F)C(F)OC(F)(F)C(F)(F)F)nn1-c1cc([S+]([O-])CC(F)(F)F)c(C)cc1F (stereo not shown) [1-369] as the molecule, how does the protective value read?
**A.** ≥ 90

**Q.** Which protective value does the source give for Cc1cc(F)c(-n2nc(OC(F)(F)C(F)OC(F)(F)C(F)(F)F)cc2C)cc1SCC(F)(F)F (stereo not shown) [1-317] here?
**A.** ≥ 90

**Q.** Which protective value does the source give for Cc1cc(F)c(-n2nc(OCC(F)C(F)(F)F)c(Cl)c2Cl)cc1[S+]([O-])CC(F)(F)F (stereo not shown) [1-266] here?
**A.** ≥ 90

**Q.** How did the protective value turn out when Cc1cc(F)c(-n2ccc(OC(F)(F)C(F)OC(F)(F)C(F)(F)C(F)(F)F)n2)cc1SCC(F)(F)F (stereo not shown) [1-414] was run?
**A.** ≥ 90

**Q.** With Cc1cc(F)c(-n2nc(OCC(F)(F)C(F)(F)C(F)(F)C(F)(F)F)cc2C#N)cc1SCC(F)(F)F [1-339] as the molecule, how does the protective value read?
**A.** ≥ 90

**Q.** Which protective value does the source give for COc1cc(OC(F)(F)C(F)C(F)(F)F)nn1-c1cc([S+]([O-])CC(F)(F)F)c(C)cc1F (stereo not shown) [1-196] here?
**A.** ≥ 90

**Q.** With Cc1cc(F)c(-n2ccc(OCC(F)(F)C(F)(F)F)n2)cc1[S+]([O-])CC(F)(F)F (stereo not shown) [1-1386] as the molecule, how does the protective value read?
**A.** ≥ 90

**Q.** With Cc1cc(F)c(-n2nc(OC(F)(F)C(F)OC(F)(F)C(F)(F)F)c(Cl)c2Cl)cc1[S+]([O-])CC(F)(F)F (stereo not shown) [1-385] as the molecule, how does the protective value read?
**A.** ≥ 90

**Q.** How did the protective value turn out when Cc1cc(F)c(-n2nc(OCC(F)(F)OC(F)(F)C(F)(F)OC(F)(F)F)cc2C)cc1[S+]([O-])CC(F)(F)F (stereo not shown) [1-324] was run?
**A.** ≥ 90

**Q.** Cc1cc(F)c(-n2nc(OC(C)C(F)(F)F)cc2C)cc1SCC(F)(F)F (stereo not shown) [1-273] was tested. Which protective value did it give?
**A.** ≥ 90

**Q.** Which protective value does the source give for CC(=O)Nc1cc(OCC(F)(F)C(F)F)nn1-c1cc(SCC(F)(F)F)c(C)cc1F [1-247] here?
**A.** ≥ 90

**Q.** Cc1cc(F)c(-n2nc(OC(F)(F)C(F)F)cc2C)cc1SCC(F)(F)F [1-1417] was tested. Which protective value did it give?
**A.** ≥ 90

**Q.** CC(=O)Nc1cc(OC(C)C(F)(F)F)nn1-c1cc(SCC(F)(F)F)c(C)cc1F (stereo not shown) [1-275] was tested. Which protective value did it give?
**A.** ≥ 90

**Q.** For Cc1cc(F)c(-n2nc(OC(F)(F)C(F)OC(F)(F)F)cc2Cl)cc1SCC(F)(F)F (stereo not shown) [1-888], which protective value is on record?
**A.** ≥ 90

**Q.** With CCOc1ccn(-c2cc([S+]([O-])CC(F)(F)F)c(C)cc2F)n1 (stereo not shown) [1-1536] as the molecule, how does the protective value read?
**A.** ≥ 90

**Q.** How did the protective value turn out when Cc1cc(F)c(-n2nc(OCC(F)(F)OC(F)(F)C(F)(F)OC(F)(F)F)cc2C)cc1SCC(F)(F)F [1-323] was run?
**A.** ≥ 90

**Q.** For Cc1cc(F)c(-n2nc(OCc3ccc(OC(F)(F)F)cc3)cc2C)cc1[S+]([O-])CC(F)(F)F (stereo not shown) [1-1600, 1-{2-fluoro-4-methyl-5-(2,2,2-trifluoroethylsulfinyl)phenyl}-5-methyl-3-{(4-trifluoromethoxy)benzyloxy}pyrazole], which protective value is on record?
**A.** ≥ 90

**Q.** With Cc1cc(F)c(-n2ccc(OC(F)(F)C(F)(F)C(F)(F)F)n2)cc1SCC(F)(F)F [1-394] as the molecule, how does the protective value read?
**A.** ≥ 90

**Q.** With Cc1cc(F)c(-n2ccc(OC(F)(F)C(F)OC(F)(F)F)n2)cc1[S+]([O-])CC(F)(F)F (stereo not shown) [1-411] as the molecule, how does the protective value read?
**A.** ≥ 90

**Q.** With Cc1cc(F)c(-n2nc(OC(F)(F)C(F)C(F)(F)F)cc2CF)cc1SCC(F)(F)F (stereo not shown) [1-1577] as the molecule, how does the protective value read?
**A.** ≥ 90
